Reference: PMC9784932
Results are given in words; binding and its absence hold for the method and conditions named. Binding seen in cells or lysates may run through a third protein.

Target: T1, VPAC2-R (mouse (endogenous in RGC-5)) (UniProt P41588)
T1 sequence: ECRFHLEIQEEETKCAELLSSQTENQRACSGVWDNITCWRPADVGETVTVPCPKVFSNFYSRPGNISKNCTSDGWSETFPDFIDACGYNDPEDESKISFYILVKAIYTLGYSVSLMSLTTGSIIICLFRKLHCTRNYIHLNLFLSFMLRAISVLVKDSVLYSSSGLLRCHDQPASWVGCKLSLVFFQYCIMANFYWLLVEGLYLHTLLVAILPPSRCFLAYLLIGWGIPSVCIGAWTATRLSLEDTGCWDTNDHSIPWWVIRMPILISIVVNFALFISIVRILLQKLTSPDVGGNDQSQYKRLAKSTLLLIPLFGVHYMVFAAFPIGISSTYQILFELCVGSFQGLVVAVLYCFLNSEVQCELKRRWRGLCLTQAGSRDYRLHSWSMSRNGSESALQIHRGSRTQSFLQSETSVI
Experiment: co-IP; nuclear fraction of RGC-5 cells treated with SPAM1 (1 uM); precipitated with the antibody against the C-terminus of PAC1-R (anti-PAC1-R/ADCYAP1R1 506-525 aa) or, as control, a VPAC2-R antibody, Protein A/G, overnight at 4 C; Western blot

In the case of “nuclear PAC1-R (pituitary adenylate cyclase-activating polypeptide receptor 1) (mouse (endogenous in RGC-5))”, the binding was “no binding”.
